{
  "source": "paper PMC8252455",
  "about": "“Prediction of a clinically effective dose of THY1773, a novel V 1B receptor antagonist, based on preclinical data” (Biopharmaceutics & Drug Disposition, 2021)",
  "assay": "Phase 1 single ascending dose study of TS-121 capsules",
  "details": "human, single oral 30 mg, fasted, mean",
  "method": "The plasma concentration–time profiles of THY1773 were analyzed by a non‐compartmental analysis with PK analysis software Phoenix WinNonlin® (version 6.1; Certara), and the PK parameters were calculated. The fraction excreted in urine was calculated by dividing the amount of THY1773 excreted in urine by the administered dose.\nA first‐in‐human, randomized, double‐blind, placebo‐controlled, adaptive, single‐ascending dose study was conducted to evaluate the safety, tolerability, and PK of single oral doses of TS‐121 capsules in the United States. This study was conducted in accordance with the ethical principles of the Declaration of Helsinki, International Council for Harmonization Good Clinical Practice Guidelines, and the United States Food and Drug Administration Code of Federal Regulations. The study was approved by an institutional ethical review board. All subjects provided written informed consent before participating in the study. […]\nBlood samples were collected at predose and 0.25, 0.5, 0.75, 1, 1.5, 2, 3, 4, 6, 8, 10, 12, 24, 36, and 48 h postdose. […] THY1773 plasma and urine concentrations were determined by validated LC‐MS/MS methods. PK parameters were evaluated following the method as described in Section 2.5 PK analysis.",
  "note": "A number of entries come with more than one value. The list is limited to them. The source may hold further records. The values listed for one entry read as repeated measurements on other runs, samples or individuals; one of them may be the mean.",
  "data": [
    {"molecule": "CC(C)NC(=O)Cn1c(-c2cccc(Cl)c2)nn(-c2ccc(CCN3CCOCC3)cc2)c1=O", "note": "[THY1773]", "values": [
      {"measurement": "t1/2", "result": "21 h and approximately 21 h and 20.5 h"}
    ]}
  ]
}
